Measured values taken from publication PMC4932188.
Results are given in words; binding and its absence hold for the method and conditions named. Binding seen in cells or lysates may run through a third protein. Some entries that bind do so weakly or less than the wild type.

By UniProt entry, the sequences of proteins in these tests, tags left out.
UniProt O75376: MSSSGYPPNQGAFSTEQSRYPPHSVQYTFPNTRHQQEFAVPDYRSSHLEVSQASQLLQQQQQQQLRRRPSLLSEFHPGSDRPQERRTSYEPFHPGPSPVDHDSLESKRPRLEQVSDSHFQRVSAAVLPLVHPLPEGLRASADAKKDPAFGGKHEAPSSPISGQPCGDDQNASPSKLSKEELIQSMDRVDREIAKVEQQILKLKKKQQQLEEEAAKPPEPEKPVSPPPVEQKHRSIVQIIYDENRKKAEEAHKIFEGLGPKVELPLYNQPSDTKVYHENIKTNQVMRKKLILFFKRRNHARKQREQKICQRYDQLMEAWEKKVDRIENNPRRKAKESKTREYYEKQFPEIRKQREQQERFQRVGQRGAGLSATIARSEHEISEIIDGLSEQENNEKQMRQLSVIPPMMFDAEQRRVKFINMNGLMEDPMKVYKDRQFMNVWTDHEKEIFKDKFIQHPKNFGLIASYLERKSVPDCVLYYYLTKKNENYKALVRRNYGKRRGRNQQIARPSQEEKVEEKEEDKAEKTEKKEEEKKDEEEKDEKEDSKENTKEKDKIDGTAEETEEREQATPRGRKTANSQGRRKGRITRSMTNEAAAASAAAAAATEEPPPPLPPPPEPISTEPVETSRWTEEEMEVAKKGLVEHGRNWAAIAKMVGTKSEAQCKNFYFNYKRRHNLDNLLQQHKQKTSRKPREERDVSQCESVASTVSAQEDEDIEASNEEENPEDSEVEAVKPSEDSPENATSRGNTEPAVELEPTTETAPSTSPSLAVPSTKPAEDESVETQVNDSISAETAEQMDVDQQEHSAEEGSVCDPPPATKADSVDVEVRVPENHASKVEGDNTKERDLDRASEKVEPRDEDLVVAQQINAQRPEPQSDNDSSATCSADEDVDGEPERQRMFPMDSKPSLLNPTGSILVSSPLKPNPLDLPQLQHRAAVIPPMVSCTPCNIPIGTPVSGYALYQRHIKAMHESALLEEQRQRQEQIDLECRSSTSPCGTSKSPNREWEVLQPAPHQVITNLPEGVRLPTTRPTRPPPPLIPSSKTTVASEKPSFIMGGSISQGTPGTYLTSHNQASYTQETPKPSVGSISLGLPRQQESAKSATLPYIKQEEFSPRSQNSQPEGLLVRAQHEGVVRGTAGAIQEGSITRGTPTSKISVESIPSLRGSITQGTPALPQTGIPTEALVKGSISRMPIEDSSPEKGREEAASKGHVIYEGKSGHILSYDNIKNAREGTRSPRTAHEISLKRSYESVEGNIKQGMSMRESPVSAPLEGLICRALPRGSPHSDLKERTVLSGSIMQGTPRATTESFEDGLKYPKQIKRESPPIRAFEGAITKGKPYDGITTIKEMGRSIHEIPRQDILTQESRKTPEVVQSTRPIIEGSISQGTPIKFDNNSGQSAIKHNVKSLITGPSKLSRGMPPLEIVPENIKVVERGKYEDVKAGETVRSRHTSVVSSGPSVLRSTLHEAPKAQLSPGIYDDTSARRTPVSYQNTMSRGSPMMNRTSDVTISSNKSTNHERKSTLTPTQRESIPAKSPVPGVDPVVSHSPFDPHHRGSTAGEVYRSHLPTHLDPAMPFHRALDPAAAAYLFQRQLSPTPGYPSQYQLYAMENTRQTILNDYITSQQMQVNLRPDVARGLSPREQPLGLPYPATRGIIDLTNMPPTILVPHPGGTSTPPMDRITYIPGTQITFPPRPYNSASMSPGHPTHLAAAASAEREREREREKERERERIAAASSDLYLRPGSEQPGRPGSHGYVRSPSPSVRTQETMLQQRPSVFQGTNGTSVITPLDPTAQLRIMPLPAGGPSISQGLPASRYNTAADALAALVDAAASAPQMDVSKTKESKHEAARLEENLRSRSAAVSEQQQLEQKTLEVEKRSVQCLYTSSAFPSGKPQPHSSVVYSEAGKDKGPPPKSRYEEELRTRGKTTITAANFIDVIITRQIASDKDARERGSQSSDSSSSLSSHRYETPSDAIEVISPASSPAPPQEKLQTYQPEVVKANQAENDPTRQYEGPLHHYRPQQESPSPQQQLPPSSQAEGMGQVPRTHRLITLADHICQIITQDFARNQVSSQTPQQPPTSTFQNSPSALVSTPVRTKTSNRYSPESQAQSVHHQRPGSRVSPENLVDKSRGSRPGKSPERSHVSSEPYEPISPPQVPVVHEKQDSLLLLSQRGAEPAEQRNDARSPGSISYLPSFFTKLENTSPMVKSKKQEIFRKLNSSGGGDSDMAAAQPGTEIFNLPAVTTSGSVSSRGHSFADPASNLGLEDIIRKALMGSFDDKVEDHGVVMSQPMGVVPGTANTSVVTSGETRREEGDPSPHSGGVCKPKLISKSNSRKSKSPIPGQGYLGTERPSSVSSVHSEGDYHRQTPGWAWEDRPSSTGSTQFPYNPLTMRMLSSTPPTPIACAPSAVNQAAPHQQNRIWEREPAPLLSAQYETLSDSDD
UniProt Q92905: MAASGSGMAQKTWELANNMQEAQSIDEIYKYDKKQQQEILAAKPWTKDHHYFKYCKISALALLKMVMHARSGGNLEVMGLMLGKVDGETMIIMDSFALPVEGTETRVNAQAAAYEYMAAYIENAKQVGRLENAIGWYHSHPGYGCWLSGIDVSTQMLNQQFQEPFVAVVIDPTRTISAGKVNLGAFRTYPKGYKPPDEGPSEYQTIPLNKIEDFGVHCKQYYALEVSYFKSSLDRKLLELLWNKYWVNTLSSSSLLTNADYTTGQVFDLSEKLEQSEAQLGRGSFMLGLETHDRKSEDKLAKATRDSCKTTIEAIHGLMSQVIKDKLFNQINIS
UniProt Q13547: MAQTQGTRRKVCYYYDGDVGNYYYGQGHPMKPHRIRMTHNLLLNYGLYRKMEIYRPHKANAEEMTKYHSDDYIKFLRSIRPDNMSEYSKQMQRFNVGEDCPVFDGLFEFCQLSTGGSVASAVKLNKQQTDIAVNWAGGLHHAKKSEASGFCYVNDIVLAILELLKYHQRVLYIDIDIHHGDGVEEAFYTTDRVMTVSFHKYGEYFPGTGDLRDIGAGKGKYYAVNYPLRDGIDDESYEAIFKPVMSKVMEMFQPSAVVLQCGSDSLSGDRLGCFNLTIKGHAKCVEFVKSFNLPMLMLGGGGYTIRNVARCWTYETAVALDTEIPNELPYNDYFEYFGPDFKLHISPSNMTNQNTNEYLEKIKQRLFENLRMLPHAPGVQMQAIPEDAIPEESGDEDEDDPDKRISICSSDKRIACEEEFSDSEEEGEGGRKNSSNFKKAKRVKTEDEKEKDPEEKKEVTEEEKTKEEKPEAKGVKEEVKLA
UniProt Q92831: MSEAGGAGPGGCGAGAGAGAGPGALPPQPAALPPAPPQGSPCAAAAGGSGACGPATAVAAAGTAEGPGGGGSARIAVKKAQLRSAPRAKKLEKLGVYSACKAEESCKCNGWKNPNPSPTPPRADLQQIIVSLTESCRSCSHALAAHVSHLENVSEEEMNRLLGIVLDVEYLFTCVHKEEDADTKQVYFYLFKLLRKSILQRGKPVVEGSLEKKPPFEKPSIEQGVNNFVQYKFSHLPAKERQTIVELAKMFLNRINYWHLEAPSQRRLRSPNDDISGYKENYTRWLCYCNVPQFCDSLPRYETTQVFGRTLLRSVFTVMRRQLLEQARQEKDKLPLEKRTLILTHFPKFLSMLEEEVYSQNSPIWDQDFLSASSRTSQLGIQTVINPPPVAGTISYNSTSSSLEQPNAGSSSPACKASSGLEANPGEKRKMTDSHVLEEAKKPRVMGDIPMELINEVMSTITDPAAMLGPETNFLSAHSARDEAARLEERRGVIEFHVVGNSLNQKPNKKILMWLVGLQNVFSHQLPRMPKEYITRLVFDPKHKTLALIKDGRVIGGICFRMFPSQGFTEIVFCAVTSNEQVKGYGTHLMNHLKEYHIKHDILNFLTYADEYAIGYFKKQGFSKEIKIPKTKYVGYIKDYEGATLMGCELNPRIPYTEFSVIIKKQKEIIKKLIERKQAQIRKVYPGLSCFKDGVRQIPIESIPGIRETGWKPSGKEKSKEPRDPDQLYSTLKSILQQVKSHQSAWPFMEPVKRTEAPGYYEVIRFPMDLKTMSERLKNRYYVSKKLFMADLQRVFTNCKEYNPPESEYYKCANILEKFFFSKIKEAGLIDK
UniProt O15379: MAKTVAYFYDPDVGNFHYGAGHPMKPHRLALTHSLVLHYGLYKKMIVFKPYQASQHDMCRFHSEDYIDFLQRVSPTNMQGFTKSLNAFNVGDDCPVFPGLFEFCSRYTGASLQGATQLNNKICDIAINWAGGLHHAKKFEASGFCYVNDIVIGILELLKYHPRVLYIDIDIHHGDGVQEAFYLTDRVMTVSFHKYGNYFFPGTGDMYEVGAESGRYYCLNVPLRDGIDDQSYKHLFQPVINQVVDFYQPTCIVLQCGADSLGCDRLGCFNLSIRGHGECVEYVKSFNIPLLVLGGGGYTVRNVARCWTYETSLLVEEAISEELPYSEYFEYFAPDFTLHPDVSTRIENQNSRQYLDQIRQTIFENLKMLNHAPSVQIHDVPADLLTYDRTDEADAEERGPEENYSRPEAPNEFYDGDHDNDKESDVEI
UniProt Q13098: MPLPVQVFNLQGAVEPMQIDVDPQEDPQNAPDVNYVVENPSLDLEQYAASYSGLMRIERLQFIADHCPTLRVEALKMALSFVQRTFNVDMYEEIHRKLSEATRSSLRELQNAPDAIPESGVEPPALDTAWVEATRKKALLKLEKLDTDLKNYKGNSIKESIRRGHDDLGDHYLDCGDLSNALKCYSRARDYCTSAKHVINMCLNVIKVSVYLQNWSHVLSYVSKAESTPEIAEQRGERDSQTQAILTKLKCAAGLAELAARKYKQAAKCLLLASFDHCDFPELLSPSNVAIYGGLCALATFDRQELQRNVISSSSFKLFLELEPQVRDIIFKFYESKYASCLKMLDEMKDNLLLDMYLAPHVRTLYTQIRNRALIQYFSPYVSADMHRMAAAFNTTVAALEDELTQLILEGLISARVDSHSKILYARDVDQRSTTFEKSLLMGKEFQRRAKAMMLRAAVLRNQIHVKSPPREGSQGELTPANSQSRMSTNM
UniProt P03372: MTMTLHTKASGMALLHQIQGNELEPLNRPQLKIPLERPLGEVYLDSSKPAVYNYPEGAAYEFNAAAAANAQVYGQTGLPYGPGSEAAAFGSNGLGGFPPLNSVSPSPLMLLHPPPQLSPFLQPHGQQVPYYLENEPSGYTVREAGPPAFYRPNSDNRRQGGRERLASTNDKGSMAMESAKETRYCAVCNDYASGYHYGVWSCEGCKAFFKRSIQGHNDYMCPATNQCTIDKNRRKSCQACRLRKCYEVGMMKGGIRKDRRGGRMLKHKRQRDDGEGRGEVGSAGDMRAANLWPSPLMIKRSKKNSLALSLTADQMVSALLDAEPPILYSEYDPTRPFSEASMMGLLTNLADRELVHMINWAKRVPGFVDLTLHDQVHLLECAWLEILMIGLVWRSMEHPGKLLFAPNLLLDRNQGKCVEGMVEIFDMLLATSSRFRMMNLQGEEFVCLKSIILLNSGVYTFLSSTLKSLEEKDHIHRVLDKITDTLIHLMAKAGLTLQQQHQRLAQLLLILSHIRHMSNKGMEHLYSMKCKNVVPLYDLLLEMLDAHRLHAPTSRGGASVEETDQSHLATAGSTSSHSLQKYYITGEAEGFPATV

Assays:
[1] = molecular target: NCoR (human (endogenous in MCF7)) (UniProt O75376); experiment: co-IP; reciprocal: immunoprecipitation of endogenous NCoR, western blot for COPS5; NETN buffer (25 mM Tris-HCl pH 8.0, 150 mM NaCl, 1 mM EDTA, 1% Nonidet P-40, 10% glycerol)
[2] = molecular target: COPS5 (human (endogenous in MCF7)) (UniProt Q92905); experiment: co-IP; immunoprecipitation with anti-COPS5 antibodies from parental MCF7 cell lysate, western blot of co-precipitated endogenous proteins; NETN buffer (25 mM Tris-HCl pH 8.0, 150 mM NaCl, 1 mM EDTA, 1% Nonidet P-40, 10% glycerol)

For COPS5 (from UniProt Q92905 1-334), the binding [1] was “binds”.
For HDAC1 (from UniProt Q13547 1-482), the binding [2] was “no binding”.
In the case of PCAF (from UniProt Q92831 1-832), the binding [2] is reported as “no binding”.
With HDAC3 (from UniProt O15379 1-428) the binding [2] was “binds”.
With GPS1/CSN1 (from UniProt Q13098 1-491) the binding [2] was “binds”.
For “Oestrogen receptor α (from UniProt P03372 1-595)”, the binding [2] was “no binding”.
In the case of NCoR (from UniProt O75376 1-2440), the binding [2] is reported as “binds”.
